Results as given in publication PMC5029660, “The DEK oncogene activates VEGF expression and promotes tumor angiogenesis and growth in HIF-1α-dependent and -independent manners”.
Results from cells or extracts need not show a direct contact. For part of these data: A negative result means that nothing was seen under these conditions. Where a protein sequence is shown, tags need not be part of it. For part of these data: For at least one entry, the source does not settle the construct or the ends of the probe. For part of these data: At least one verdict rests on a figure or table, not on a statement of the authors.

Key:
Experiment in all cases: EMSA
FLAG-DEK(188-375) = molecular target: T1, FLAG-DEK(188-375) (UniProt P35659); conditions: LightShift Chemiluminescent EMSA Kit (Pierce), per manufacturer; pH and temperature not stated; protein in a lysate after overexpression; residues 188-375; protein details: N-terminal FLAG; label: biotin
T1 sequence (looked up): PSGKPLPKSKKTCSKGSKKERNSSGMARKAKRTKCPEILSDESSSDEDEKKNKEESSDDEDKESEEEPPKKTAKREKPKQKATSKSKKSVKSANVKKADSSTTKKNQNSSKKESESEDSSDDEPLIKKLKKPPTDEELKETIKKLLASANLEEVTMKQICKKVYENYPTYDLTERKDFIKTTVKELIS

FLAG-DEK(1-187) = molecular target: T2, FLAG-DEK(1-187) (UniProt P35659); conditions: LightShift Chemiluminescent EMSA Kit (Pierce), per manufacturer; pH and temperature not stated; protein in a lysate after overexpression; residues 1-187; protein details: N-terminal FLAG; label: biotin
T2 sequence (looked up): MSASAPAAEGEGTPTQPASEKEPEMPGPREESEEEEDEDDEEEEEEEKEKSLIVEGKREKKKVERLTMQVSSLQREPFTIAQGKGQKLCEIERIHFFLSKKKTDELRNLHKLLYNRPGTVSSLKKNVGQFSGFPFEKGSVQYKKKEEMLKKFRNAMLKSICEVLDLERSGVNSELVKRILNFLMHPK

FLAG-DEK = molecular target: T3, FLAG-DEK (UniProt P35659); conditions: LightShift Chemiluminescent EMSA Kit (Pierce), per manufacturer; pH and temperature not stated; protein in a lysate after overexpression; protein details: N-terminal FLAG; label: biotin
T3 sequence (looked up, limits assumed): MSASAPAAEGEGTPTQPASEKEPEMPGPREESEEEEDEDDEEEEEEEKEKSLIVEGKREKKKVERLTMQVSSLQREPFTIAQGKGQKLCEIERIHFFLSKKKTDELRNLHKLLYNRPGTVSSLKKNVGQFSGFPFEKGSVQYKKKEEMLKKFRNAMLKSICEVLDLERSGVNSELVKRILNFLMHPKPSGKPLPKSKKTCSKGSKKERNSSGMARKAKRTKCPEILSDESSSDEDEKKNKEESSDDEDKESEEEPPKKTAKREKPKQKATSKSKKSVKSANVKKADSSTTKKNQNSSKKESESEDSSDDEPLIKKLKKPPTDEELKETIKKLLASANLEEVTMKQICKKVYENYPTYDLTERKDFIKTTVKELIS

“GGGTTGAGGGCGTTGGAGCGGGGAGAAGGCCAGGGGT (double strand) [DRE1]”: binds (FLAG-DEK(188-375)); no binding (FLAG-DEK(1-187)); binds (FLAG-DEK).
